The assay deals with C-terminal HA-tagged tPPARγΔ64D mutant with aa 1-64 deleted (HEK293T) (human) (UniProt P37231). Briefly: affinity purification with mass spectrometry; HA-tagged full-length PPARγ or tPPARγΔ64D expressed in HEK293T; anti-HA immunoprecipitation from whole-cell extract, Protein A/G beads, low-salt washes; two bands (35 and 45 kDa) specific to tPPARγΔ64D excised, in-gel trypsin digestion, MS.

These are yes or no findings as the source states them, for the method shown. Binding seen in cells or lysates may run through a third protein. These calls come from enrichment with a bait or labelling near it, and not all partners need be listed.

For one molecule, binding results are on record in article PMC5626701, “Caspase-1 cleaves PPARγ for potentiating the pro-tumor action of TAMs” (Nature Communications, 2017).

B1: medium-chain acyl-CoA dehydrogenase (MCAD), endogenous in THP-1 (enzyme, human (endogenous in THP-1), UniProt P11310 26-421, looked up)
chain: KANRQREPGLGFSFEFTEQQKEFQATARKFAREEIIPVAAEYDKTGEYPVPLIRRAWELGLMNTHIPENCGGLGLGTFDACLISEELAYGCTGVQTAIEGNSLGQMPIIIAGNDQQKKKYLGRMTEEPLMCAYCVTEPGAGSDVAGIKTKAEKKGDEYIINGQKMWITNGGKANWYFLLARSDPDPKAPANKAFTGFIVEADTPGIQIGRKELNMGQRCSDTRGIVFEDVKVPKENVLIGDGAGFKVAMGAFDKTRPVVAAGAVGLAQRALDEATKYALERKTFGKLLVEHQAISFMLAEMAMKVELARMSYQRAAWEVDSGRRNTYYASIAKAFAGDIANQLATDAVQILGGNGFNTEYPVEKLMRDAKIYQIYEGTSQIQRLIVAREHIDKYKN
notes: medium-chain acyl-CoA dehydrogenase (MCAD), mitochondrial; detected and precipitated with an anti-MCAD antibody; source: endogenous, THP-1 cell extract
On to B1, for which the binding entry was “binds”.
